Measured values as given in patent US7531195B2, “Schisandrin B preparation” (priority 2005, dated 2009).
At least one compound was matched to its structure with a doubt left. Marks after values point to notes of the source that are not given here.

Test system: Myocardial Mitochondria
Test: Myocardial mitochondrial ATP generation capacity, young male and female rats
Format: in vivo, rat
Conditions: male rats; 1 mg/kg daily oral, 35 days
Procedure: Male/Female adult Sprague-Dawley rats (˜10 weeks old) were maintained under a 12-h dark/light cycle at about 22° C. and allowed food and water ad libitum. Animals were randomly divided into groups, with at least 5 animals in each. In the pretreatment groups, rats were treated intragastrically with (−) Schisandrin B at a daily dose of 1 or 10 mg/kg for 35 days. Control animals received oil only (10 ml/kg). Twenty-four hours following the last dosing, hearts were isolated from control or drug-pretreated rats and then subjected to Langendorff perfusion as described below.
Myocardial tissue samples were rinsed with ice-cold isotonic buffer (50 mM Tris, 0.32 M sucrose, 1 mM Na2EDTA, 0.2 mg/ml soybean trypsin inhibitor, 0.2 mg/ml bacitracine, 0.16 mg/ml benzamidine). […]
Myocardial mitochondrial ATP generation capacity was measured by incubating 200 μl of nucleus-free tissue homogenate with 200 μl of substrate solution (containing 100 mM glutamate and 34 mM malate) and 20 μl ADP (2.3 mM) for 10 min at 37° C., and the ATP level were measured using an assay kit from Sigma Chemical Co. (St. Louis, Mo., USA). LDH activity was spectrophotometrically measured as described (Yim and Ko 1999).

For `COc1cc2c(c(OC)c1OC)-c1c(cc3c(c1OC)OCO3)CC(C)C(C)C2` (single isomer, unassigned; (-)) [(−) Sch B, (−) Schisandrin B], the “ATP Generation” value was 5.58 ± .0.19^a μmol/min/mg protein.
